The list shows a part of the results. Repeats are few or missing, and single values can be far off.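 Cells were imaged in 1,536-well plates, and nuclei stained with an antibody against cleaved PARP were counted against all DNA-stained nuclei to give the apoptosis fraction. Screening doses were chosen to leave most cells alive, and resting and induced cleaved-PARP levels differ strongly between cell lines.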
Tested on: WM1716
Assay: cleaved PARP positive nuclei fraction relative to DMSO control; melanoma cells; higher = more apoptosis
Details: library dose: low library concentration; 72 h

Compound	cleaved PARP positive nuclei fraction [%]
C/C(O)=C(\C#N)C(=O)Nc1cc(Br)ccc1Br + O=C(Oc1ccc([N+](=O)[O-])cc1)N1CCC(C(O)(c2ccc3c(c2)OCO3)c2ccc3c(c2)OCO3)CC1 [JZL184] (first compound 2 µM, partner dose 1 µM)	131
C[As](C)SC[C@H](NC(=O)CC[C@H](N)C(=O)O)C(=O)NCC(=O)O [Darinaparsin] + Cc1cc(N2CCOCC2)cc2[nH]c(-c3c(NC[C@@H](O)c4cccc(Cl)c4)cc[nH]c3=O)nc12 [BMS536924] (first compound 0.4 µM, partner dose 0.2 µM)	172
N.N.[Cl][Pt][Cl] [cisplatin] + Clc1ccc(Nc2nnc(Cc3ccncc3)c3ccccc23)cc1 [vatalanib] (first compound 1.6 µM, partner dose 2 µM)	56.6
C/C(O)=C(\C#N)C(=O)Nc1cc(Br)ccc1Br + O=C1NC(=O)/C(=C/c2ccc(-c3ccc(F)cc3O)o2)S1 [AS252424] (first compound 2 µM, partner dose 1 µM)	63.5
Cn1cc(C2=C(c3cn(C4CCN(Cc5ccccn5)CC4)c4ccccc34)C(=O)NC2=O)c2ccccc21 [Enzastaurin] + COc1cc2ncnc(Nc3ccc(Oc4ccccc4)cc3)c2cc1OC [SrcI1] (first compound 0.8 µM, partner dose 2 µM)	164
C[C@]1(c2nc3c(C(N)=O)cccc3[nH]2)CCCN1 [Veliparib] + C/C(O)=C(\C#N)C(=O)Nc1cc(Br)ccc1Br [LFM-A13] (first compound 1.4 µM, partner dose 2 µM)	89.6

Source: the supplement of paper PMC4604168 (melanoma cell lines)
